Assay results reported in the supplement of paper PMC10849652.
Some of the results follow.

Sequences of proteins named here, by UniProt entry; tags and fusion partners are left off. A change or cut given only in a name is not applied to a line headed by its entry.
UniProt Q14241: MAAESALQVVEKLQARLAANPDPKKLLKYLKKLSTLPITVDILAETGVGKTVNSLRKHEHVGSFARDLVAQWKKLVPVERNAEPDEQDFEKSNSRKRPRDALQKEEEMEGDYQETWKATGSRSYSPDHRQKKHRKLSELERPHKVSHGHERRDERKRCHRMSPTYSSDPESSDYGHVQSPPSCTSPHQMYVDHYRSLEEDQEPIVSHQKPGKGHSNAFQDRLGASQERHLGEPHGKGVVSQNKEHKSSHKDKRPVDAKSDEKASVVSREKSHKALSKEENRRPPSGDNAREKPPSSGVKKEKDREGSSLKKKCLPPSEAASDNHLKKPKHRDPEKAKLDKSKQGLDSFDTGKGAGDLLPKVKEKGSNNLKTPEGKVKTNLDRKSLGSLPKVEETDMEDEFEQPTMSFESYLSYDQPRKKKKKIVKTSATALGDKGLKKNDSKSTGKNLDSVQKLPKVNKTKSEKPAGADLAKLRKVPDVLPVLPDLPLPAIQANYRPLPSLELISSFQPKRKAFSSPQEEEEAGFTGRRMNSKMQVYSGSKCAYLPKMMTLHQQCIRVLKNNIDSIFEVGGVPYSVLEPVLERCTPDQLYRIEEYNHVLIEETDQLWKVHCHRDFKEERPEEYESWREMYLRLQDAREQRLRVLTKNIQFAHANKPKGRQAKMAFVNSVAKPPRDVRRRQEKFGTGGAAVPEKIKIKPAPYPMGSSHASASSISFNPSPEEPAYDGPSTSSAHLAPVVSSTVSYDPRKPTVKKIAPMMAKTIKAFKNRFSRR
UniProt Q9BW60: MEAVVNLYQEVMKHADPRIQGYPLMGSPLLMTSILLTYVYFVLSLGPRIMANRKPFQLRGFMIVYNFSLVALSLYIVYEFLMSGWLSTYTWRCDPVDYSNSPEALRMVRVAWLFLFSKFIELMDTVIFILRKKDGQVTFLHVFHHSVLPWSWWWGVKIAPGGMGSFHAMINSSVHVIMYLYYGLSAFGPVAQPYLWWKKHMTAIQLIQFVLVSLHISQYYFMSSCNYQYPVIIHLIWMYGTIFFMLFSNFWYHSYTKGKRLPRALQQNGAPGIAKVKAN
UniProt Q9UI10, whole entry, looked up: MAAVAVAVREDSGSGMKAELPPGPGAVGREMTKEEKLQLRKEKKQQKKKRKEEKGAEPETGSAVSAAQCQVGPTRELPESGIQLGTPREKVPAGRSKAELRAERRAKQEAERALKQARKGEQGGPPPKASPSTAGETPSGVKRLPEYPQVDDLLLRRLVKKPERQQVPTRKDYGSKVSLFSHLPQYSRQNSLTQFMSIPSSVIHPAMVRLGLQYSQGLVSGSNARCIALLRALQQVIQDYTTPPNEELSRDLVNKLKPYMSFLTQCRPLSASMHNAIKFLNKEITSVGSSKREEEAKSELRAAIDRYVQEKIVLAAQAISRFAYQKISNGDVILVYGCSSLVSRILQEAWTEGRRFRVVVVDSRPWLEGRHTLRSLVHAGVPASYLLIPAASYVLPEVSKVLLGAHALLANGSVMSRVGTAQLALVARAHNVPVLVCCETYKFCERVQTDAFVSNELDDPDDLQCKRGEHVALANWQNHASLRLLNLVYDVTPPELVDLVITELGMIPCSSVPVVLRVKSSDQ
UniProt P26378: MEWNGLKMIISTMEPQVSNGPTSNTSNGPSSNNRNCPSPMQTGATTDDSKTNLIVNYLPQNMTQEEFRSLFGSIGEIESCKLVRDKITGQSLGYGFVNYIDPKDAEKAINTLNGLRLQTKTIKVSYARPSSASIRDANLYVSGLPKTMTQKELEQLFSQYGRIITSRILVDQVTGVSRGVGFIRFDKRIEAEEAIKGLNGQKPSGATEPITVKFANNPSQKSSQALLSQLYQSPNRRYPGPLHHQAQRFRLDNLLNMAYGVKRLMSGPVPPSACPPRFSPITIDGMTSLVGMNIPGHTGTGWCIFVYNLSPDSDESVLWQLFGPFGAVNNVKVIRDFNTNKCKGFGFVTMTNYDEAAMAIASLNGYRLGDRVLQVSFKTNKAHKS
UniProt P23588, whole entry, looked up: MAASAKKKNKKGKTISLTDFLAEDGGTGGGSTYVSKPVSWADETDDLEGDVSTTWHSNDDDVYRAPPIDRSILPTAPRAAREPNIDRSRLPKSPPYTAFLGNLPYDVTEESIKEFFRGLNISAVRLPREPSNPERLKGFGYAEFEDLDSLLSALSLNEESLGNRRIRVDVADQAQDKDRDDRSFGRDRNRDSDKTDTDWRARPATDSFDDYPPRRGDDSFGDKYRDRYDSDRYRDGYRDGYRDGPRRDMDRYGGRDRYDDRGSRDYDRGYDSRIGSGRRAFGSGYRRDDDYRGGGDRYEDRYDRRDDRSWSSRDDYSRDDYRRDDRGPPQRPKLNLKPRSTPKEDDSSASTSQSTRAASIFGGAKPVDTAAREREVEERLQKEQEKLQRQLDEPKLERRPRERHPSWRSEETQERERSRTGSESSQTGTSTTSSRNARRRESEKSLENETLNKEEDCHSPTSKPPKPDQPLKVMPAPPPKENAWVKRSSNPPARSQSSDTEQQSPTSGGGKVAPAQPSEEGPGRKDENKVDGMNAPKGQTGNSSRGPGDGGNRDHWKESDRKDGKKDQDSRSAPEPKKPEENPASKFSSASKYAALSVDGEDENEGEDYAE
UniProt Q9H5J4: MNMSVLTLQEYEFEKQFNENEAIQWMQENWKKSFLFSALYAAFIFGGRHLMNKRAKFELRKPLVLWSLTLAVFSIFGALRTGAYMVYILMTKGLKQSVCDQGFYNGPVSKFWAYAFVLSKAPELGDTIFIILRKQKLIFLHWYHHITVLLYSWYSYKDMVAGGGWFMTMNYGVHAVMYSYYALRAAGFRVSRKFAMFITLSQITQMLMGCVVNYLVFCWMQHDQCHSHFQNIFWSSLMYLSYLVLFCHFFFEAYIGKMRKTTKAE
UniProt Q13542: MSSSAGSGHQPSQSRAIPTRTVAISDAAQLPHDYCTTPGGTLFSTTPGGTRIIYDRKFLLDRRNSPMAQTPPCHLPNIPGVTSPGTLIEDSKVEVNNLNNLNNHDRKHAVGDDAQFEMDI
UniProt Q6P179: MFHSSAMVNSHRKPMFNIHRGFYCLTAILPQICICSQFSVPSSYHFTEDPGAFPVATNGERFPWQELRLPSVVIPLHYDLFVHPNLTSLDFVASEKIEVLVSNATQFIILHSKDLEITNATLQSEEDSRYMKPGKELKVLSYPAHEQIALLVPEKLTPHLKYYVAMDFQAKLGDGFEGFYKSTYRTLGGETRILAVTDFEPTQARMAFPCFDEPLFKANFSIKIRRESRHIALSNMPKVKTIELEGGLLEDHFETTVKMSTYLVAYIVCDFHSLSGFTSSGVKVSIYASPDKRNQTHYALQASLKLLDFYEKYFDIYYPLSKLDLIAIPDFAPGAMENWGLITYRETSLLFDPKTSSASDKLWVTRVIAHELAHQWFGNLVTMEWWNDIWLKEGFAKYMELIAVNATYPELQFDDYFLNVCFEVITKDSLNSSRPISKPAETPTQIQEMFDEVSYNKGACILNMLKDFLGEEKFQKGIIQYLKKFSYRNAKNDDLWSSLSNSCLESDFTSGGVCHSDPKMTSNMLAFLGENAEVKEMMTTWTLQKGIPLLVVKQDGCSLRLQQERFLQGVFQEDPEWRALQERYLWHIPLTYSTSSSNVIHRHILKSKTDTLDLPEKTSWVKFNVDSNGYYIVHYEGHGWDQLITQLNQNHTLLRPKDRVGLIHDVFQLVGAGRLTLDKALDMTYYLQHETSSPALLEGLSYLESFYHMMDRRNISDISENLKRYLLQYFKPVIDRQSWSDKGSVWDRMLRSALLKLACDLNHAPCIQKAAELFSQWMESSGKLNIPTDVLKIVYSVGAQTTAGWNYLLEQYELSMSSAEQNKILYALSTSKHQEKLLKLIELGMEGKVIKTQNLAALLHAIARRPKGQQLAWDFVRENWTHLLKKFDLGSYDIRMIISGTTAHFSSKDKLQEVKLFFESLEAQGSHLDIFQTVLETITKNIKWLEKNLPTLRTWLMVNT
UniProt O95208: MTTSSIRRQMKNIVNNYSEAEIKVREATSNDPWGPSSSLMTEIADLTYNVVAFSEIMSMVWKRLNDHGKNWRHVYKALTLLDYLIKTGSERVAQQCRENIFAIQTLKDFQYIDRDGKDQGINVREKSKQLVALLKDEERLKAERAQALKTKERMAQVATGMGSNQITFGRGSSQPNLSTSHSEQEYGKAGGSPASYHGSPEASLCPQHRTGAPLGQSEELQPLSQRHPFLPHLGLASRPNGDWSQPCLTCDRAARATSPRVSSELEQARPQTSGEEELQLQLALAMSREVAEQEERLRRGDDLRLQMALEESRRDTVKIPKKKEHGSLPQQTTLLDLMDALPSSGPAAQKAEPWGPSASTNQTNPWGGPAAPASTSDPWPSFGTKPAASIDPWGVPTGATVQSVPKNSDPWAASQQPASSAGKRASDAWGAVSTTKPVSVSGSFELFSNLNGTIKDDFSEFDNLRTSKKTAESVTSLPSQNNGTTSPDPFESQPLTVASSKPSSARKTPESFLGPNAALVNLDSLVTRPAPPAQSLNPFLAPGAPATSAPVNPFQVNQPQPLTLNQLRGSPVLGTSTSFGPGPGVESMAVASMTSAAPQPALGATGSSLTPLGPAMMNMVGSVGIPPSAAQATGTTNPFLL
UniProt P0DP91, whole entry, looked up: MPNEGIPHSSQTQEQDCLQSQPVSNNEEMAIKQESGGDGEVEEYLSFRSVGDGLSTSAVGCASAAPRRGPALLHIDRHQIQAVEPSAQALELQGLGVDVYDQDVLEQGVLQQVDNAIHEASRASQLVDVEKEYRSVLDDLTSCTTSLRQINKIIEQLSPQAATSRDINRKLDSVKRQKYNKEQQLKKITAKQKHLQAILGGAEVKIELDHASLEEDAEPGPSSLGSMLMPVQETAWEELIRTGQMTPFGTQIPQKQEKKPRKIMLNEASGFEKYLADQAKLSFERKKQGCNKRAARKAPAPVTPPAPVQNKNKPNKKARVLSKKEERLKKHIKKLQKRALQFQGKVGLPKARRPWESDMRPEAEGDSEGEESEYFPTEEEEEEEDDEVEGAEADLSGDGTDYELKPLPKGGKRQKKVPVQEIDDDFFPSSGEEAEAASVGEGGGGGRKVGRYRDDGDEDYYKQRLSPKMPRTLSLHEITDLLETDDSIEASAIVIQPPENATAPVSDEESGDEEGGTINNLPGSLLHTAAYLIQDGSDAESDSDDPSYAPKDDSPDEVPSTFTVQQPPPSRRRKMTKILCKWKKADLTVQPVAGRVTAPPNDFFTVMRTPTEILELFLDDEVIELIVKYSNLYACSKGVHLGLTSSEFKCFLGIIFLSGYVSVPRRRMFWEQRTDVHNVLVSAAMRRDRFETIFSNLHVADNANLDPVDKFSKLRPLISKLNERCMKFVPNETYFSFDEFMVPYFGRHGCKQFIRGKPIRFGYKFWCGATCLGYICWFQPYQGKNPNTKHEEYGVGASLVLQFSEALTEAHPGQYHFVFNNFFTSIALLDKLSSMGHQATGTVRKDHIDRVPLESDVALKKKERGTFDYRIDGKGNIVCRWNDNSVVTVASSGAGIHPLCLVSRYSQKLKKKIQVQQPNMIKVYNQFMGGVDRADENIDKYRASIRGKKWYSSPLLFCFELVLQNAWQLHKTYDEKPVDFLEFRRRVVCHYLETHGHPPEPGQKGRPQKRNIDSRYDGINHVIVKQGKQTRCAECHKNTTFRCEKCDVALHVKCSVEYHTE
UniProt P78344: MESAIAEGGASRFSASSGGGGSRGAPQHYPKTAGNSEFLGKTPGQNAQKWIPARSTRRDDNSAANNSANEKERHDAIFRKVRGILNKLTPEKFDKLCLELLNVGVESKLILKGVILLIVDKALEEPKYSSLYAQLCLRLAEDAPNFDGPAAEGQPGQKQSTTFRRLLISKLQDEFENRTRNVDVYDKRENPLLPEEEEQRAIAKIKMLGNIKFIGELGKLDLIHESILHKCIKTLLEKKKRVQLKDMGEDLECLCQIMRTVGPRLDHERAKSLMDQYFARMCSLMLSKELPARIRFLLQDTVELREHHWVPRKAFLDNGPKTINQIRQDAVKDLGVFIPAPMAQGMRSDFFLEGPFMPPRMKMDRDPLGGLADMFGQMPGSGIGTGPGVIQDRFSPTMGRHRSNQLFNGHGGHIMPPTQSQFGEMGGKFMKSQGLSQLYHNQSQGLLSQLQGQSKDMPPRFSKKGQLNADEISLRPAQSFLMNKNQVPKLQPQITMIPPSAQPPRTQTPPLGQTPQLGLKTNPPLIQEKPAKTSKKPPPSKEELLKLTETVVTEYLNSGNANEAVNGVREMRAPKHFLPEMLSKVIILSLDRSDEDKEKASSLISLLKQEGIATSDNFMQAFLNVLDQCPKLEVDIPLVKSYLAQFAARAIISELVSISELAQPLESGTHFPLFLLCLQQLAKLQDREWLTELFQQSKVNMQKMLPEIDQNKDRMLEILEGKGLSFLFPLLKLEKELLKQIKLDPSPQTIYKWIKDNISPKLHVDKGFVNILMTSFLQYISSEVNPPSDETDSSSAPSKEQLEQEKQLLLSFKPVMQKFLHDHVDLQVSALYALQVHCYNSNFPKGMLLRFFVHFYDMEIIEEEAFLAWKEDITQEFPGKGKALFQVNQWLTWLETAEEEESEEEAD

Legend:
Experiment in all cases: log2 fold change, soluble protein after heating vs DMSO (PISA); higher = thermal stabilisation; K562 lysate, 10 uM; active = over 0.2 and 3.5 SD of the protein, either way, in both replicates (recomputed)
erlotinib = compound: C#Cc1cccc(Nc2ncnc3cc(OCCOC)c(OCCOC)cc23)c1 [erlotinib]
Method in brief: (§1)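 Pellets of K562 cells were dounce-homogenised in PBS pH 7.4 with 1 mM MgCl2, and the crude extract was held at 1 mg/mL protein for a 30 min treatment with 10 μM compound. Aliquots were heated for 3 min over 48°C-58°C and pooled before NP-40 was added to 0.5% at 4°C. The supernatant from 21,000xg for 90 min was quantified by TMTpro 16plex LC-MS/MS with channel sums equalised. Values are reported from duplicates as log-two fold change in thermal stability relative to solvent controls.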

[1] = compound: C/C(=N\NC(=O)C1=CC(=CC=C1)S(=O)(=O)N2CCOCC2)/C3=C(C=CC(=C3)Cl)O
Method in brief: as §1

[2] = compound: C1=CC(=CC=C1C2=NC3=C(N2)C=C(C=C3)C(=O)N)OC4=CC=C(C=C4)Cl
Method in brief: as §1

[3] = compound: C1=CC2=C(C=CC(=C2)/C=C\3/C(=O)NC(=NCC4=CC=CS4)S3)N=C1
Method in brief: as §1

[4] = compound: C1=CC2=NC=CN=C2C=C1/C=C/3\C(=O)NC(=O)S3
Method in brief: as §1

[5] = compound: C1=CC=C(C=C1)C2=NC(=C(N2)C3=CC=NC=C3)C4=CC(=C(C=C4)Cl)O
Method in brief: as §1

[6] = compound: C1=CC=C2C(=C1)C3=NNC4=CC=CC(=C43)C2=O
Method in brief: as §1

[7] = compound: C1CCN(C1)C(=O)NC2=CC=CC(=C2)NC3=NC=C(C(=N3)NCCC4=CN=CN4)Br
Method in brief: as §1

[8] = compound: C1CN(CCC1(CC2=CC=C(C=C2)Cl)N)C3=NC=NC4=C3C=CN4
Method in brief: as §1

IRAK-1-4 Inhibitor I = compound: C1COCCN1CCN2C3=CC=CC=C3N=C2NC(=O)C4=CC(=CC=C4)[N+](=O)[O-] [IRAK-1-4 Inhibitor I]
Method in brief: as §1

ibrutinib = compound: C=CC(=O)N1CCC[C@@H](n2nc(-c3ccc(Oc4ccccc4)cc3)c3c(N)ncnc32)C1 [ibrutinib]
Method in brief: as §1

[9] = compound: CC(=O)c1cnc2ccc(-c3cc(Cl)c(O)c(Cl)c3)nc2c1N[C@H]1CC[C@H](CN(C)C)CC1
Method in brief: as §1

ralimetinib = compound: CC(C)(C)Cn1c(N)nc2ccc(-c3[nH]c(C(C)(C)C)nc3-c3ccc(F)cc3)nc21 [ralimetinib]
Method in brief: as §1

[10] = compound: CC(C)(O)CC(=O)NCCn1ccc2ncnc(Nc3ccc(Oc4cccc(C(F)(F)F)c4)c(Cl)c3)c21
Method in brief: as §1

[11] = compound: CC(C)C1=C2N=C(C=C(N2N=C1)NCC3=CC=CC=C3)NCCCCCCN
Method in brief: as §1

[12] = compound: CC1=C(C(CC(=O)N1)C2=CC=C(C=C2)C(F)(F)F)C(=O)NC3=C(C=C4C(=C3)C=NN4)F
Method in brief: as §1

[13] = compound: CC1=C(C2=C(C=C1)C(=O)C3=CC=CC=C3N2CCCN)C
Method in brief: as §1

[14] = compound: CC1=C(C=C(C=C1)NC(=O)C2=CC(=CC=C2)C(C)(C)C#N)NC3=CC4=C(C=C3)N=CN(C4=O)C
Method in brief: as §1

[15] = compound: CC1=C(C=C(C=C1)NC(=O)C2=CC(=CC=C2)N(C)C)NC(=O)C3=CC=C(C=C3)O
Method in brief: as §1

[16] = compound: CC1=CC=C(C=C1)SC2=C3C=C(SC3=CN=C2)C(=O)N
Method in brief: as §1

Measured: log2 fold change

ELOA (UniProt Q14241)
inactive: erlotinib -0.046 | [1] -0.026 | [2] 0.015 | [3] 0.012 | [4] -0.129 | [5] -0.011 | [6] 0.092 | [7] -0.023 | [8] 0.005 | IRAK-1-4 Inhibitor I -0.102 | ibrutinib 0.022 | [9] -0.008 | ralimetinib 0.023 | [10] -0.003 | [11] 0.012 | [12] 0.031 | [13] -0.024 | [14] 0.035 | [15] 0.013 | [16] 0.034

ERCC2 (UniProt P18074)
inactive: erlotinib 0.027 | [1] -0.028 | [2] 0.018 | [3] 0.025 | [4] 0.006 | [5] 0 | [6] -0.041 | [7] -0.002 | [8] -0.031 | IRAK-1-4 Inhibitor I 0.008 | ibrutinib -0.026 | [9] -0.02 | ralimetinib 0.077 | [10] -0.015 | [11] 0.002 | [12] -0.048 | [13] -0.016 | [14] -0.019 | [15] 0.031 | [16] 0.002

EIF4A3 (UniProt P38919)
inactive: erlotinib 0.04 | [1] 0.003 | [2] -0.008 | [3] -0.026 | [4] 0.016 | [5] 0.011 | [6] -0.002 | [7] -0.006 | [8] 0.001 | IRAK-1-4 Inhibitor I -0.001 | ibrutinib -0.011 | [9] 0.012 | ralimetinib 0.018 | [10] 0.009 | [11] 0.003 | [12] -0.026 | [13] -0.024 | [14] 0.031 | [15] 0.002 | [16] 0.019

ELOVL1 (UniProt Q9BW60)
inactive: erlotinib -0.048 | [1] -0.063 | [2] -0.175 | [3] -0.037 | [4] 0.012 | [5] -0.027 | [6] -0.139 | [7] 0.058 | [8] -0.066 | IRAK-1-4 Inhibitor I 0.052 | ibrutinib -0.033 | [9] 0.079 | ralimetinib 0.026 | [10] -0.178 | [11] -0.119 | [13] 0.033 | [14] 0.071 | [15] 0.004 | [16] 0.023

EIF2B4 (UniProt Q9UI10)
inactive: erlotinib 0.066 | [1] -0.063 | [2] -0.027 | [3] -0.178 | [4] -0.02 | [5] -0.121 | [6] 0.105 | [7] -0.009 | [8] 0.07 | IRAK-1-4 Inhibitor I 0.118 | ibrutinib -0.01 | [9] 0.05 | ralimetinib -0.033 | [10] -0.062 | [11] 0.013 | [12] 0.009 | [13] -0.109 | [14] -0.044 | [15] 0.005 | [16] -0.038

ELAVL4 (UniProt P26378)
inactive: erlotinib 0.073 | [1] 0.047 | [2] -0.063 | [3] -0.047 | [5] 0.015 | [6] 0.002 | [7] 0.029 | [8] 0.036 | IRAK-1-4 Inhibitor I -0.012 | [9] -0.04 | ralimetinib 0.065 | [10] 0.064 | [11] 0.026 | [12] -0.061 | [13] -0.01 | [14] -0.005 | [15] -0.026 | [16] 0.073

EIF4B (UniProt P23588)
inactive: erlotinib -0.001 | [1] 0.029 | [2] 0.012 | [3] -0.005 | [4] -0.007 | [5] 0.007 | [6] -0.012 | [7] 0.01 | [8] -0.023 | IRAK-1-4 Inhibitor I 0.014 | ibrutinib -0.031 | [9] 0.002 | ralimetinib -0.014 | [10] -0.01 | [11] 0.005 | [12] -0.036 | [13] 0.022 | [14] 0.017 | [15] -0.028 | [16] -0.019

ELOVL6 (UniProt Q9H5J4)
inactive: erlotinib -0.491 | [1] 0.352 | [2] -0.061 | [3] 0.37 | [6] -0.01 | [9] 0.042 | [11] -0.057 | [12] 0.069 | [13] 0.137 | [14] 0.021 | [16] -0.022

EPS15L1 (UniProt M0QY01)
inactive: erlotinib 0.017 | [1] -0.047 | [2] 0.082 | [3] -0.078 | [6] -0.081 | [7] -0.054 | [8] 0.027 | [9] 0.08 | [11] -0.098 | [13] 0.043 | [16] -0.061

EIF4H isoform 2 (UniProt Q15056)
inactive: erlotinib -0.035 | [1] 0.276 | [2] 0.151 | [3] 0.024 | [4] -0.1 | [5] -0.03 | [6] 0.1 | [7] 0.221 | [8] 0.147 | IRAK-1-4 Inhibitor I 0.013 | ibrutinib 0.023 | [9] 0.006 | ralimetinib -0.082 | [10] -0.164 | [11] -0.055 | [13] -0.094 | [14] -0.053 | [15] -0.084 | [16] 0.1

Taken from the entries so far (four entries):
EIF2B4 (UniProt Q9UI10)
inactive: erlotinib 0.066 | [1] -0.063 | [2] -0.027 | [3] -0.178 | [4] -0.02 | [5] -0.121 | [6] 0.105 | [7] -0.009 | [8] 0.07 | IRAK-1-4 Inhibitor I 0.118 | ibrutinib -0.01 | [9] 0.05 | ralimetinib -0.033 | [10] -0.062 | [11] 0.013 | [12] 0.009 | [13] -0.109 | [14] -0.044 | [15] 0.005 | [16] -0.038

ELAVL4 (UniProt P26378)
inactive: erlotinib 0.073 | [1] 0.047 | [2] -0.063 | [3] -0.047 | [5] 0.015 | [6] 0.002 | [7] 0.029 | [8] 0.036 | IRAK-1-4 Inhibitor I -0.012 | [9] -0.04 | ralimetinib 0.065 | [10] 0.064 | [11] 0.026 | [12] -0.061 | [13] -0.01 | [14] -0.005 | [15] -0.026 | [16] 0.073

EIF4B (UniProt P23588)
inactive: erlotinib -0.001 | [1] 0.029 | [2] 0.012 | [3] -0.005 | [4] -0.007 | [5] 0.007 | [6] -0.012 | [7] 0.01 | [8] -0.023 | IRAK-1-4 Inhibitor I 0.014 | ibrutinib -0.031 | [9] 0.002 | ralimetinib -0.014 | [10] -0.01 | [11] 0.005 | [12] -0.036 | [13] 0.022 | [14] 0.017 | [15] -0.028 | [16] -0.019

ELOVL6 (UniProt Q9H5J4)
inactive: erlotinib -0.491 | [1] 0.352 | [2] -0.061 | [3] 0.37 | [6] -0.01 | [9] 0.042 | [11] -0.057 | [12] 0.069 | [13] 0.137 | [14] 0.021 | [16] -0.022

Further records.

EIF4EBP2 (UniProt Q13542)
inactive: erlotinib 0.103 | [1] 0.087 | [2] -0.042 | [3] 0.036 | [4] -0.158 | [5] -0.064 | [6] 0.011 | [7] -0.083 | [8] 0.072 | IRAK-1-4 Inhibitor I -0.034 | ibrutinib -0.037 | [9] -0.007 | ralimetinib -0.038 | [10] 0.046 | [11] -0.037 | [12] -0.049 | [13] 0.063 | [14] -0.031 | [15] 0.169 | [16] 0.03

ERAP2 (UniProt Q6P179)
inactive: erlotinib -0.076 | [2] 0.054 | [4] -0.177 | [5] -0.015 | [7] 0 | [8] -0.029 | IRAK-1-4 Inhibitor I 0.056 | ibrutinib 0.162 | [9] 0.002 | ralimetinib -0.006 | [10] -0.111 | [11] 0.046 | [14] 0.079 | [15] 0 | [16] 0.035

EPN2 (UniProt O95208)
inactive: erlotinib 0.054 | [1] -0.08 | [2] -0.001 | [3] -0.011 | [4] -0.059 | [5] -0.039 | [6] 0.003 | [7] -0.003 | [8] 0.007 | IRAK-1-4 Inhibitor I -0.005 | ibrutinib -0.01 | [9] -0.016 | ralimetinib 0.075 | [10] -0.004 | [11] -0.058 | [12] 0.009 | [13] -0.024 | [14] 0.001 | [15] 0.017 | [16] -0.009

ERCC6 (UniProt P0DP91)
inactive: erlotinib 0.173 | [2] -0.522 | [4] 0.107 | [5] 0.084 | [7] -0.244 | [8] 0.016 | IRAK-1-4 Inhibitor I -0.099 | ibrutinib -0.315 | ralimetinib 0.219 | [10] 0.3 | [11] 0.098 | [12] 0.173 | [13] -0.158 | [15] 0.173

EP300 (UniProt Q09472)
inactive: erlotinib 0.017 | [1] 0.011 | [2] -0.024 | [3] -0.017 | [4] 0.078 | [5] -0.015 | [6] -0.019 | [7] -0.033 | [8] 0 | IRAK-1-4 Inhibitor I -0.006 | ibrutinib 0.084 | [9] 0.117 | ralimetinib -0.026 | [10] -0.011 | [11] -0.07 | [12] 0.423 | [13] -0.011 | [14] -0.035 | [15] -0.025 | [16] -0.008

EIF3B (UniProt C9JQN7)
inactive: erlotinib -0.121 | [2] 0.133 | [4] -0.055 | [5] -0.011 | IRAK-1-4 Inhibitor I 0.035 | ibrutinib 0.05 | [9] -0.011 | ralimetinib -0.07 | [10] -0.095 | [11] 0.069 | [12] -0.037 | [14] -0.052 | [15] 0.053 | [16] -0.116

EIF4G2 (UniProt P78344)
inactive: erlotinib 0.018 | [1] 0.046 | [2] -0.002 | [3] 0.022 | [4] 0.019 | [5] -0.047 | [6] 0.025 | [7] -0.025 | [8] -0.012 | IRAK-1-4 Inhibitor I 0.011 | ibrutinib 0.005 | [9] 0.04 | ralimetinib -0.003 | [10] -0.011 | [11] -0.031 | [12] 0.018 | [13] 0.094 | [14] -0.004 | [15] 0.014 | [16] 0.006
